This is one part of the list. These are further read-outs of the screen, such as a control signal, another cell line or another target. No call is given for them. The list favours compounds with an active or inconclusive main result. Potencies come from curve fits of mixed quality, noted in brackets.
Assay: qHTS Assay to Find Inhibitors of Chronic Active B-Cell Receptor Signaling
Conditions: ABC-DLBCL IkBa-CBG/CBR reporter, luminescence ratio (green luciferase fused to IkBa over red control in TMD8 lymphoma cells), 4 h
Outline: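 Cell line TMD8 (human ABC DLBCL), stably expressing tet-inducible CBG68-IkBa fusion and CBR; IMDM/0.5% FBS; cpd up to 46 uM; dox induction, 4 h, 37C/5% CO2; dual luminescence; green/red ratio; MG132 control.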

[1] = measured here: CBR red luminescence, cell number
[2] = measured here: IkBa-CBG green luminescence

SMILES	AC50 [1]	AC50 [2]
Cc1ccc(OCC(=O)NC(=S)Nc2cccc(NC(=O)c3ccccc3)c2)cc1	8.2 µM [falling, partial curve, poor fit]	
O=C(Nc1ccc(Br)cn1)C1CCN(S(=O)(=O)c2cccs2)CC1	0.708 µM [rising, full curve, poor fit]	
COc1cccc(C(=O)Nc2nnc(-c3ccccc3)s2)c1	2.82 µM [falling, full curve]	
O=C(Nc1ccc(N2CCOCC2)cc1)C1CCN(S(=O)(=O)Cc2ccccc2)CC1	0.259 µM [rising, full curve, poor fit]	
O=C(Cn1c(-c2ccccc2)c[n+]2ccsc12)c1ccccc1	3.55 µM [rising, partial curve, poor fit]	
Cc1c(Cl)cccc1NC(=O)c1cc(-c2ccco2)on1	0.316 µM [falling, full curve, poor fit]	
COc1ccc2nc(NC(=O)c3cccnc3SC)sc2c1	9.2 µM [falling, partial curve, poor fit]	
COc1ccc(S(=O)(=O)N(CC(=O)NC2CCCC2)c2ccccc2OC)cc1	15.8 µM [falling, single point]	
Cc1c(C(=O)Nc2ccc(-c3nnc4n3CCCCC4)cc2)oc2ccc(Br)cc12	3.66 µM [falling, partial curve, poor fit]	
O=C(OCc1cccc(F)c1)c1cc2ccccc2cc1O	11.2 µM [rising, partial curve, poor fit]	
CN1CCN(S(=O)(=O)c2cccc(C(=O)Nc3nc(-c4ccccc4)cs3)c2)CC1	2.91 µM [falling, partial curve, poor fit]	
COc1cccc(CNc2ccccc2O)c1OCc1ccccc1F	10 µM [falling, partial curve]	
CCn1nc(NS(=O)(=O)c2ccc(NC(C)=O)cc2)c2cc3ccccc3nc21	14.1 µM [falling, single point]	
CC(C)CN1C(=O)/C(=C/c2c(N3CCc4ccccc4C3)nc3ccccn3c2=O)SC1=S	12.6 µM [rising, single point]	
O=C(N/N=C/c1ccc(O)cc1O)c1ccc(CN2C(=O)c3cccc4cccc2c34)cc1	8.91 µM [falling, partial curve]	
CC(C)CN(CC(C)C)C(=O)Nc1cccc([N+](=O)[O-])c1	11.2 µM [rising, partial curve, poor fit]	
O=S(=O)(Cc1cc(Cl)nc(-c2cccnc2)n1)c1ccccc1	11.2 µM [falling, partial curve, poor fit]	
O=C(COc1ccc(S(=O)(=O)NC2CCCCC2)cc1Cl)Nc1ccc2c(c1)OCO2	29.1 µM [falling, single point]	
O=Nc1[nH]c(=O)c(/C=C(\O)c2ccccc2)nc1NO	31.6 µM [falling, single point]	
O=C(Nc1ccccc1)Nc1cc(OCC(F)(F)F)cc(OCC(F)(F)F)c1	0.082 µM [rising, full curve, poor fit]	
Cn1cccc1/C=N/NC(=O)C(O)c1ccccc1 (centres undefined)	12.6 µM [falling, partial curve]	

SMILES	AC50 [1]	AC50 [2]
CC(C)c1ccc2[nH]c3nc(SCC(=O)NC4CC4)nnc3c2c1	5.62 µM [rising, partial curve, poor fit]	
Cc1cc(C)nc(SCc2nnc(SCC(=O)Nc3ccc(Cl)c(C(F)(F)F)c3)o2)n1	0.146 µM [rising, full curve, poor fit]	
COc1cccc(-c2ccc3c(N)c(C(=O)Nc4ccccc4C)sc3n2)c1	3.55 µM [falling, partial curve, poor fit]	22.4 µM [rising, partial curve, poor fit]
C/C(=N/OC(=O)CC(C)C)c1cc(-c2ccc(Cl)cc2)no1	0.126 µM [rising, full curve, poor fit]	
Cc1ccc(-c2cc3nc(C)cc(NCc4ccco4)n3n2)cc1	10 µM [falling, partial curve, poor fit]	
CCc1nnc(NS(=O)(=O)c2ccc(NC(=O)c3ccccc3C)cc2)s1	35.5 µM [falling, single point]	
O=C(NNC(=O)c1ccc(-c2ccc([N+](=O)[O-])cc2)o1)c1ccncc1	29.1 µM [rising, single point]	
COc1ccccc1CC(=O)Nc1nc(-c2ccc(F)c(F)c2)cs1	14.1 µM [falling, partial curve]	
Cc1nc(NC(=O)c2cnccn2)ccc1Br		0.501 µM [falling, full curve, poor fit]
O=[N+]([O-])c1ccc2c(c1)nc1n2CCN(c2ccccc2)C1	11.2 µM [falling, single point]	
O=C(CNS(=O)(=O)c1ccccc1)NCC(=O)OCc1ccccc1F	10.3 µM [rising, partial curve]	
Cc1ccc(C(=O)N2CCC3(CC2)Oc2ccc(F)cc2C(=O)C32CC(c3ccccc3)=NO2)s1 (centres undefined)	12.6 µM [falling, single point]	
CCOC(=O)c1c(-c2ccccc2)oc2ccc(OCC(=O)NNC(=O)CCCC(=O)O)cc12		0.794 µM [rising, full curve, poor fit]
COCCN1C(=O)C(=O)/C(=C(/O)c2ccc(S(=O)(=O)N3CCOCC3)cc2)C1c1cccc(Cl)c1 (centres undefined)	10 µM [rising, partial curve, poor fit]	
Cc1nc2ccc([N+](=O)[O-])cc2c(=O)n1Cc1cccc(F)c1	10 µM [falling, single point]	
CCCCN(CC)CCCNC(=O)C1c2ccccc2C(=O)N(C)C1c1cn(C)c2ccccc12 (centres undefined)	16.4 µM [falling, single point]	
CCOC(=O)C1(CCCc2ccccc2)CCN(C(=O)CSC)CC1	1.12 µM [rising, full curve, poor fit]	
O=C1C2C3C=CC(C3)C2C(=O)N1c1ccc2ccccc2c1 (centres undefined)	0.447 µM [rising, full curve, poor fit]	
C=CC[C@@H](Cc1ccc(F)cc1)C(=O)OC[C@@H]1CCCN1C(=O)[C@@H](CC=C)CC(=O)N(CCO)Cc1ccccc1	18.4 µM [falling, partial curve, poor fit]	
CCOC(=O)/C(C#N)=C1/C=C(C)NC(c2ccccc2O)=N1	0.58 µM [rising, full curve]	
O=C(Cc1ccccc1)N1CCC(c2ccccc2)C1 (centres undefined)	0.398 µM [rising, full curve, poor fit]	

SMILES	AC50 [1]	AC50 [2]
Cn1ccnc1SCC(=O)Nc1ccc(Oc2ccccc2)cc1	15.8 µM [falling, single point]	
COc1ccc2c(=O)c(C(=O)NCc3ccccc3)c[nH]c2c1	12.6 µM [falling, single point]	
Cc1ccc(OCC(=O)NNC(=O)c2ccccc2OCc2c(C)noc2C)cc1	23.1 µM [rising, single point]	
N#CCCN(C(=O)COC(=O)CNS(=O)(=O)c1ccc2ccccc2c1)c1ccccc1	6.51 µM [rising, full curve, poor fit]	
O=C(O)c1ccccc1NC(=O)C(Cc1ccccc1)N1C(=O)c2ccccc2C1=O (centres undefined)	10 µM [rising, partial curve, poor fit]	
COc1nc(C)ccc1-c1noc(-c2cccs2)n1	2.82 µM [rising, single point]	
CCOC(=O)c1c(C)oc2c1c(C(c1ccccc1)N1CCOCC1)c(O)c1ccccc12 (centres undefined)	5.17 µM [rising, partial curve, poor fit]	
CN(C)/C=N/C(=S)Nc1ccc(Cl)cc1	17.8 µM [rising, single point]	
CCc1cccc(C)c1NC(=O)CCCC(=O)O	2.06 µM [rising, full curve, poor fit]	
CN(Cc1ccccc1F)C(=O)CNC(=O)Cc1cccc2ccccc12	12.6 µM [falling, partial curve, poor fit]	
CC(C)Nc1nnc(SC(C)C(=O)N(C)C2CCCCC2)s1 (centres undefined)	1.16 µM [rising, full curve, poor fit]	
O=C(Nc1ccc(N2CCOCC2)cc1)c1c(F)cccc1Cl	3.16 µM [falling, full curve]	
Cc1ccccc1CS(=O)(=O)c1snnc1C	35.5 µM [rising, single point]	
CCC(C)NCCOc1cc(C)cc(C)c1C (centres undefined)	11.2 µM [falling, partial curve, poor fit]	
Cc1nnc(SCC(=O)Nc2cccc(C(F)(F)F)c2)n1Cc1ccco1	3.98 µM [falling, partial curve, poor fit]	
Cc1onc(-c2ccccc2)c1C(=O)Nc1ccc(S(=O)(=O)Nc2nccs2)cc1	2.82 µM [falling, partial curve, poor fit]	
CN(C)c1nc(Cl)cc(N2CCOCC2)n1	16.4 µM [rising, single point]	
O=C(c1ccccc1)N1N=C(c2ccccc2)CC1(O)C(F)(F)F (centres undefined)	2.82 µM [falling, full curve, poor fit]	
O=C(OCc1ccccc1F)c1cnc(Cl)c(Cl)c1	3.55 µM [rising, full curve]	
Cc1ccc(Oc2ccccc2)c(NC=O)c1	12.6 µM [rising, partial curve, poor fit]	
COc1ccc(C2(c3ccc(OC)cc3)NC(=O)N(CC(=O)Nc3ccc(C(N)=O)cc3)C2=O)cc1	6.31 µM [falling, single point]	

An excerpt from above in order of molar mass, low to high:
SMILES	AC50 [1]	AC50 [2]
Cc1ccc(Oc2ccccc2)c(NC=O)c1	12.6 µM [rising, partial curve, poor fit]	
CCC(C)NCCOc1cc(C)cc(C)c1C (centres undefined)	11.2 µM [falling, partial curve, poor fit]	
CN(C)c1nc(Cl)cc(N2CCOCC2)n1	16.4 µM [rising, single point]	
CCc1cccc(C)c1NC(=O)CCCC(=O)O	2.06 µM [rising, full curve, poor fit]	
Cc1ccccc1CS(=O)(=O)c1snnc1C	35.5 µM [rising, single point]	
COc1nc(C)ccc1-c1noc(-c2cccs2)n1	2.82 µM [rising, single point]	
COc1ccc2c(=O)c(C(=O)NCc3ccccc3)c[nH]c2c1	12.6 µM [falling, single point]	
O=C(c1ccccc1)N1N=C(c2ccccc2)CC1(O)C(F)(F)F (centres undefined)	2.82 µM [falling, full curve, poor fit]	
O=C(Nc1ccc(N2CCOCC2)cc1)c1c(F)cccc1Cl	3.16 µM [falling, full curve]	
Cc1nnc(SCC(=O)Nc2cccc(C(F)(F)F)c2)n1Cc1ccco1	3.98 µM [falling, partial curve, poor fit]	
Cc1ccc(OCC(=O)NNC(=O)c2ccccc2OCc2c(C)noc2C)cc1	23.1 µM [rising, single point]	
Cc1onc(-c2ccccc2)c1C(=O)Nc1ccc(S(=O)(=O)Nc2nccs2)cc1	2.82 µM [falling, partial curve, poor fit]	
CCOC(=O)c1c(C)oc2c1c(C(c1ccccc1)N1CCOCC1)c(O)c1ccccc12 (centres undefined)	5.17 µM [rising, partial curve, poor fit]	
N#CCCN(C(=O)COC(=O)CNS(=O)(=O)c1ccc2ccccc2c1)c1ccccc1	6.51 µM [rising, full curve, poor fit]	
